Results deposited as PubChem BioAssay AID1259405 (NCATS, 2018).

Purpose: 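Silenced genes that increase secreted GFP made by CHO cells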 (primary screen)
Cell system: Chinese hamster CHO-K1 ovary cells with stable secreted eGFP expression
Reagent: single siRNA against mouse genes, 0.8 pmol siRNA per well (2 µl of 400 nM stock)
Duration: 3 days
Detection: 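Per-well intracellular GFP measured by laser scanning cytometry, plus viability from ATP luminescence, each relative to plate median of non-targeting control wells, in %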
Scale: GFP, % of control: higher = more GFP per well, higher productivity; viability (ATP), % of control: higher = more viable cells (more ATP)
Call rule: 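a knock-down is called active if GFP reaches 120% or more of non-targeting control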
In all, the deposit lists about 50,000 reagents; shown is a random part of them. In the full data, about 4,000 (8%) got an active call. 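Mouse siRNA library applied to hamster cells; one well for each siRNA.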 The numbers tell different reagents against one gene apart.

| Gene | reagent | GFP, % of control | viability (ATP), % of control | activity call |
| --- | --- | --- | --- | --- |
| Tfr2 | 1 | 78 | 73.3 | inactive |
| Tfr2 | 2 | 102 | 90 | inactive |
| Tfr2 | 3 | 91.4 | 101 | inactive |
| Smarca1 | 1 | 97.6 | 90.5 | inactive |
| Smarca1 | 2 | 99.9 | 68.5 | inactive |
| Smarca1 | 3 | 111 | 52.6 | inactive |
| Prrc2a | 1 | 74.9 | 61.3 | inactive |
| Prrc2a | 2 | 90.4 | 88.6 | inactive |
| Prrc2a | 3 | 67.5 | 73.7 | inactive |
| Enoph1 | 1 | 64 | 95.8 | inactive |
| Enoph1 | 2 | 80.4 | 96.2 | inactive |
| Enoph1 | 3 | 81.3 | 97 | inactive |
| Xpnpep3 | 1 | 117 | 79 | inactive |
| Xpnpep3 | 2 | 75.4 | 50.5 | inactive |
| Xpnpep3 | 3 | 95.5 | 57.8 | inactive |
| Fam180a | 1 | 59.9 | 83.4 | inactive |
| Fam180a | 2 | 46 | 79.6 | inactive |
| Fam180a | 3 | 130 | 189 | active |
| Or5d37 | 1 | 48.9 | 57.2 | inactive |
| Or5d37 | 2 | 65.7 | 90.2 | inactive |
| Or5d37 | 3 | 83.4 | 67.5 | inactive |
| Msh2 | 1 | 88.6 | 80 | inactive |
| Msh2 | 2 | 115 | 107 | inactive |
| Msh2 | 3 | 79.7 | 87.7 | inactive |

In a second layout: 5 of the entries above
Gene | reagent | GFP, % of control | viability (ATP), % of control | activity call
Prrc2a | 1 | 74.9 | 61.3 | inactive
Prrc2a | 2 | 90.4 | 88.6 | inactive
Prrc2a | 3 | 67.5 | 73.7 | inactive
Enoph1 | 1 | 64 | 95.8 | inactive
Enoph1 | 2 | 80.4 | 96.2 | inactive

The listing continues:
| Gene | reagent | GFP, % of control | viability (ATP), % of control | activity call |
| --- | --- | --- | --- | --- |
| Grhpr | 1 | 94.3 | 95.9 | inactive |
| Grhpr | 2 | 108 | 99.7 | inactive |
| Grhpr | 3 | 40.6 | 37.6 | inactive |
| Slc35f1 | 1 | 88.6 | 70.3 | inactive |
| Slc35f1 | 2 | 45.5 | 31.3 | inactive |
| Slc35f1 | 3 | 61 | 62.1 | inactive |
| Sh2d7 | 1 | 118 | 132 | inactive |
| Sh2d7 | 2 | 85.1 | 91.7 | inactive |
| Sh2d7 | 3 | 98.5 | 114 | inactive |
| Tent4a | 1 | 86.4 | 92.2 | inactive |
| Tent4a | 2 | 80 | 51.4 | inactive |
| Plekha3 | 1 | 88.6 | 81.5 | inactive |
| Plekha3 | 2 | 71.4 | 71.1 | inactive |
| Plekha3 | 3 | 135 | 47.6 | active |
| Ccdc157 | 1 | 150 | 83.8 | active |
| Ccdc157 | 2 | 118 | 69.5 | inactive |
| Ccdc157 | 3 | 111 | 48.4 | inactive |
| Stab2 | 1 | 85.3 | 70.1 | inactive |
| Stab2 | 2 | 131 | 77.9 | active |
| Stab2 | 3 | 91.9 | 86.9 | inactive |
| Tom1l2 | 1 | 78.5 | 76.2 | inactive |
| Tom1l2 | 2 | 63.4 | 76.3 | inactive |
| Tom1l2 | 3 | 63.6 | 103 | inactive |
| Tiparp | 1 | 73.1 | 37.1 | inactive |
| Tiparp | 2 | 24.8 | 35.6 | inactive |
| Tiparp | 3 | 49.8 | 59.4 | inactive |
| Foxp3 | 1 | 61.6 | 77.5 | inactive |
| Foxp3 | 2 | 47.5 | 48.7 | inactive |
| Sycp2 | 1 | 109 | 85.2 | inactive |
| Sycp2 | 2 | 57.9 | 64.5 | inactive |
| Sycp2 | 3 | 118 | 85 | inactive |
| Zfp788 | 1 | 125 | 81.7 | active |
| Zfp788 | 2 | 88.6 | 46.8 | inactive |
| Zfp788 | 3 | 57.1 | 58.2 | inactive |
